Test results published in PubChem BioAssay AID504834 (National Center for Advancing Translational Sciences (NCATS), 2011).
Screen size: about 320,000 compounds; about 22,000 (6.9%) were called active. The inconclusive results got no clear call from the source; some entries with a clear call stand among them for comparison. The call rests on the fitted dose curve; in most records, active means well fitted inhibition curve with a large enough effect; inconclusive means small, poorly fitted or top-dose-only effect, or another doubt; inactive means no such curve, though single readings can be large or run the other way. Where the call is inconclusive, the potency comes from a doubtful curve fit.

Test: Primary qHTS for delayed death inhibitors of the malarial parasite plastid, 96 hour incubation
Conditions: P. falciparum luciferase reporter growth; series mostly up to 28.7 µM
Outline: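 Two parasite generations (96 h, 37 C, 5% CO2) of compound exposure in infected erythrocytes (0.05% parasitemia, 2% hematocrit). Luciferase-reporter P. falciparum; decreased luminescence indicates inhibited growth, aimed at apicoplast-acting delayed death.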
Potency means the concentration at half of the fitted maximal effect.

SMILES	Potency
Cc1ccc(NC(=O)C2CCN(S(=O)(=O)c3ccc4c(c3)NC(=O)CO4)CC2)cc1C	inconclusive: 13.1 µM [inhibitor, single point]
Nc1ccc2cc3ccc(N)cc3nc2c1	active: 2.39 µM
Cn1c(=O)c2c(SCC(=O)c3ccccc3)nc(C3CC3)nc2n(C)c1=O	inactive
O=C(c1ccncc1)N(Cc1ccco1)Cc1cc2ccccc2[nH]c1=O	inconclusive: 7.38 µM [inhibitor, partial curve]
COc1cc(C(=O)N2CCN(Cc3ccc4c(c3)OCO4)CC2)cc(OC)c1OC	inconclusive: 7.38 µM [inhibitor, partial curve, poor fit]
CC1CCN(C(=O)CCNS(=O)(=O)c2ccc(Br)cc2)CC1	inconclusive: 1.65 µM [inhibitor, single point]
Cn1c(O)c(N=NC(=O)Cn2ccc(C(F)(F)F)n2)c2ccccc21	inconclusive: 11.7 µM [inhibitor, single point]
C1CCc2c(nc3nnnn3c2NCC2CC2)C1	inconclusive: 18.5 µM [inhibitor, single point]
Cc1ccccc1NS(=O)(=O)c1ccc(OCC(=O)NCc2ccccn2)cc1	inconclusive: 2.62 µM [inhibitor, partial curve, poor fit]
CCCc1nnc(NC(=O)c2cc3ccccc3oc2=O)s1	inactive
Cc1ccc(S(=O)(=O)N(Cc2cc3ccccc3[nH]c2=O)CC2CCCO2)cc1 (stereo unspecified)	inconclusive: 3.7 µM [inhibitor, partial curve]
CCc1ccc(N2CC(C(=O)Nc3cccnc3)CC2=O)cc1 (stereo unspecified)	inactive
Cc1ccccc1-n1c(/C=C/c2ccccn2)nc2ccccc2c1=O	inconclusive: 11.7 µM [inhibitor, single point]
COc1ccc2nc(NC(=O)C3CCN(C(=O)c4ccco4)CC3)sc2c1	inconclusive: 18.5 µM [inhibitor, single point]
S=c1[nH]nc(CSCCOc2ccccc2)o1	inactive
CCCN1C(=O)c2ccccc2NC1c1ccc(C)cc1 (stereo unspecified)	inconclusive: 18.5 µM [inhibitor, single point]
Cc1c(NC(=O)Nc2cccc(Cl)c2Cl)c(=O)n(-c2ccccc2)n1C	inactive
COCCNc1nc(-c2cc3ccccc3o2)cs1	inactive
Cc1cc(C)cc(NC(=O)c2cccc3c2C(=O)N(C2CCCCC2)C3)c1	active: 11.7 µM
CC(=O)NCc1ccc(-c2csc(NC(=O)CCCc3nc4ccccc4c(=O)[nH]3)n2)cc1	inconclusive: 18.5 µM [inhibitor, single point]
CCCCN=C1NN=C(c2cccc([N+](=O)[O-])c2)CS1	inactive
COc1ccc(/C=N/n2c(-c3ccccc3)n[nH]c2=S)cc1	inconclusive: 18.5 µM [inhibitor, single point]
CC1CCc2c(sc(NC(=O)c3ccccc3C(=O)O)c2C#N)C1 (stereo unspecified)	inactive

SMILES	Potency
CC(C(=O)N(C)C1CCS(=O)(=O)C1)N1C(=O)/C(=C/c2cccs2)SC1=S (stereo unspecified)	inconclusive: 10.4 µM [inhibitor, partial curve, poor fit]
CC(=O)O[C@H]1C(=O)[C@@]2(C)[C@H]([C@H](OC(=O)c3ccccc3)[C@]3(O)C[C@H](OC(=O)[C@H](O)C(NC(=O)c4ccccc4)c4ccccc4)C(C)=C1C3(C)C)[C@]1(OC(C)=O)CO[C@@H]1C[C@@H]2O (stereo partly specified)	active: 0.0738 µM
Cc1nc2ccccc2c(=O)n1Nc1cccc(Cl)c1	active: 5.86 µM
CCc1cccc2c3c([nH]c12)[C@@](CC)(CC(=O)O)OCC3	inactive
O=C(Nc1ccncc1)OCc1ccccc1	inactive
O=C(CSCc1cnn(-c2ccccc2)c1-n1cccc1)NCC1CCCO1 (stereo unspecified)	inconclusive: 10.4 µM [inhibitor, single point]
COc1cccc(NC(=O)c2cccc(C(=O)Nc3cccc(OC)c3)n2)c1	inconclusive: 0.828 µM [inhibitor, full curve]
O=C(CN1CCCN(S(=O)(=O)c2ccc(Br)s2)CC1)Nc1ccc(Cl)cc1	inconclusive: 13.1 µM [inhibitor, single point]
O=C(O)CSc1cc(NS(=O)(=O)c2ccc(Cl)cc2)c2ccccc2c1O	inconclusive: 11.7 µM [inhibitor, single point]
COc1ccc(CCNC(=O)CSc2nnc(CNC(=O)c3c(F)cccc3Cl)o2)cc1OC	inactive
O=C1C2=C(NC(=S)NC2c2ccc(Cl)cc2)NC(c2ccc(Cl)cc2)N1c1ccc(Cl)cc1 (stereo unspecified)	inconclusive: 8.28 µM [inhibitor, single point]
CC(=O)Oc1cc2oc(=O)cc(C)c2cc1OC(C)=O	inconclusive: 18.5 µM [inhibitor, single point]
CC(=O)N=c1c(C#N)cc2c(=O)n3ccccc3nc2n1Cc1ccccc1	active: 8.28 µM
O=C(Nc1cccnc1)c1cc(-c2ccc(Cl)c(Cl)c2)on1	inconclusive: 10.4 µM [inhibitor, single point]
CCC(=O)Nc1cc(Cl)ccc1N1CCN(C(=O)CC)CC1	inactive
CCN(Cc1ccc2c(c1)OCO2)C(=O)CSc1nc(C)nc2sc(C)c(C)c12	inactive
Nc1c(N(Cc2ccco2)C(=O)c2ccc(Cl)cc2)c(=O)[nH]c(=O)n1Cc1ccccc1	inactive
Cc1ccc(S(=O)(=O)Nc2cccc(-c3ccc(N4CCCCCC4)nn3)c2)cc1	inactive
CCCCCCCNC(=O)C1(CC2CC(c3ccccc3)=NO2)CCNCC1 (stereo unspecified)	inconclusive: 10.4 µM [inhibitor, partial curve]
Cc1ccccc1-n1c(SCc2cccc(F)c2)nc2[nH]ncc2c1=O	inconclusive: 11.7 µM [inhibitor, partial curve, poor fit]
COCc1cc(=O)n2[nH]c(-c3cccs3)cc2n1	inactive
Brc1ccc(-c2nnc3ccc(Nc4ccccc4)nn23)cc1	inconclusive: 0.329 µM [inhibitor, full curve, poor fit]
COc1ccc(-n2nc(C(=O)NCC(=O)NCC3CCCO3)c3ccccc3c2=O)cc1Cl (stereo unspecified)	inconclusive: 18.5 µM [inhibitor, single point]

Some of these compounds in order of count of non-hydrogen atoms, low to high.
SMILES	Potency
O=C(Nc1ccncc1)OCc1ccccc1	inactive
CCN(Cc1ccc2c(c1)OCO2)C(=O)CSc1nc(C)nc2sc(C)c(C)c12	inactive
COc1ccc(-n2nc(C(=O)NCC(=O)NCC3CCCO3)c3ccccc3c2=O)cc1Cl (stereo unspecified)	inconclusive: 18.5 µM [inhibitor, single point]
